For some of these results: Negatives hold for the conditions tested. For some of these results: The exact form of at least one protein or probe is not confirmed. For some of these results: Weaker means in comparison with the reference protein, sequence or condition of that experiment. For some of these results: At least one verdict rests on a figure or table, not on a statement of the authors.
Assays:
[1] = target: CCL2 (MCP-1), wild type (Homo sapiens) (UniProt P13500); assay: native PAGE and dynamic light scattering; conditions: 1 mM Mg2+, 1 mM Ca2+; all L-ribonucleotides (L-RNA, mirror image); recombinant protein; synthetic backbone
[2] = target: CCL7 (MCP-3) (Homo sapiens) (UniProt P80098); assay: SPR; conditions: all L-ribonucleotides (L-RNA, mirror image); SPR (Biacore 2000), chemokine immobilized on CM4/CM5, physiological running buffer, 37 C; complex formation in 20 mM HEPES pH 7.4, 100 mM NaCl, 5 mM KCl, 1 mM MgCl2; commercial protein; synthetic backbone
[3] = target: CCL2 H66Y H89Y (Homo sapiens) (UniProt P13500); assay: SPR; conditions: Kd and rates similar to wild type; all L-ribonucleotides (L-RNA, mirror image); SPR (Biacore 2000), chemokine immobilized on CM4/CM5, physiological running buffer, 37 C; complex formation in 20 mM HEPES pH 7.4, 100 mM NaCl, 5 mM KCl, 1 mM MgCl2; recombinant protein; synthetic backbone
[4] = target: CCL2 V22K V45K (Homo sapiens) (UniProt P13500); assay: SPR; conditions: Kd and rates similar to wild type; all L-ribonucleotides (L-RNA, mirror image); SPR (Biacore 2000), chemokine immobilized on CM4/CM5, physiological running buffer, 37 C; complex formation in 20 mM HEPES pH 7.4, 100 mM NaCl, 5 mM KCl, 1 mM MgCl2; recombinant protein; synthetic backbone
[5] = target: CCL2 R18K R41K (Homo sapiens) (UniProt P13500); assay: SPR; conditions: Kd not worse than wild type, on- and off-rate about 3-fold slower; all L-ribonucleotides (L-RNA, mirror image); SPR (Biacore 2000), chemokine immobilized on CM4/CM5, physiological running buffer, 37 C; complex formation in 20 mM HEPES pH 7.4, 100 mM NaCl, 5 mM KCl, 1 mM MgCl2; recombinant protein; synthetic backbone
[6] = target: CCL2 (MCP-1), R&D Systems (Homo sapiens) (UniProt P13500); assay: SPR; conditions: all L-ribonucleotides (L-RNA, mirror image), SPR (Biacore 2000), complex formation in 20 mM HEPES pH 7.4, 100 mM NaCl, 5 mM KCl, 1 mM MgCl2, commercial protein, synthetic backbone
[7] = target: CCL2 (MCP-1), wild type (Homo sapiens) (UniProt P13500); assay: crystal structure; conditions: 2.05 A, Sr2+, K+, Na+; all L-ribonucleotides; 2'-deoxy-2'-methylseleno-uridine at position 31; recombinant protein; synthetic backbone

Amino acid sequences for entries named in this document (tags omitted). Residues count along the entry.
UniProt P13500, 24-99: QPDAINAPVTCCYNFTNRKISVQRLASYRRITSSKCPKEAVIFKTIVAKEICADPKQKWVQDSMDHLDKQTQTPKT
UniProt P13500, 24-99 H89Y: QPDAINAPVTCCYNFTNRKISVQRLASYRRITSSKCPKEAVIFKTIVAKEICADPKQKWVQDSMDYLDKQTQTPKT
UniProt P13500, 24-99 V45K: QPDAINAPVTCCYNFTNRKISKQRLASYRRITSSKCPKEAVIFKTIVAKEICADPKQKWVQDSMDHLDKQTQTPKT
UniProt P13500, 24-99 R41K: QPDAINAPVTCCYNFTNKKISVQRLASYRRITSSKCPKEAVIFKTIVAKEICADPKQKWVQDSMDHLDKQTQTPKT
UniProt P80098, 24-99: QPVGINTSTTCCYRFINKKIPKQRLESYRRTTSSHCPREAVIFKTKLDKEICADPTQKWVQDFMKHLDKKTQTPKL

Sequence | binding result [1] | binding result [2] | binding result [3] | binding result [4] | binding result [5] | binding result ([6]; Ca2+ reduced or omitted (strong Ca2+ dependence), chemokine immobilized on CM4/CM5, physiological running buffer, 37 C) | binding result ([6]; K+ varied, no effect on kinetics, chemokine immobilized on CM4/CM5, physiological running buffer, 37 C) | binding result ([6]; Mg2+ varied, minor effect, chemokine immobilized on CM4/CM5, physiological running buffer …) | binding result ([6]; Na+ above physiological level, chemokine immobilized on CM4/CM5, physiological running buffer, 37 C) | binding result [7]
GCACGUCCCUCACCGGUGCAAGUGAAGCCGUGGCUCUGCG [NOX-E36 L-aptamer (Spiegelmer, without PEG)] | binds | no binding | binds | binds | binds | binds more weakly | binds | binds | binds more weakly | –
GCACGUCCCUCACCGGUGCAAGUGAAGCCGUGGCUCUGCG [NOX-E36 L-aptamer, U31 2'-methylseleno] | – | – | – | – | – | – | – | – | – | binds
